Measurements taken from the supplement of paper PMC12067093, “Discovery and optimisation of a covalent ligand for TRIM25 and its application to targeted protein ubiquitination” (Chemical Science, 2025).
The other results are listed elsewhere or left out.

Protein sequences, listed by entry. Tags and fused reporters are not part of them. Lines headed by an entry give the natural chain unless they say otherwise; changes in a name come on top.
UniProt P20020: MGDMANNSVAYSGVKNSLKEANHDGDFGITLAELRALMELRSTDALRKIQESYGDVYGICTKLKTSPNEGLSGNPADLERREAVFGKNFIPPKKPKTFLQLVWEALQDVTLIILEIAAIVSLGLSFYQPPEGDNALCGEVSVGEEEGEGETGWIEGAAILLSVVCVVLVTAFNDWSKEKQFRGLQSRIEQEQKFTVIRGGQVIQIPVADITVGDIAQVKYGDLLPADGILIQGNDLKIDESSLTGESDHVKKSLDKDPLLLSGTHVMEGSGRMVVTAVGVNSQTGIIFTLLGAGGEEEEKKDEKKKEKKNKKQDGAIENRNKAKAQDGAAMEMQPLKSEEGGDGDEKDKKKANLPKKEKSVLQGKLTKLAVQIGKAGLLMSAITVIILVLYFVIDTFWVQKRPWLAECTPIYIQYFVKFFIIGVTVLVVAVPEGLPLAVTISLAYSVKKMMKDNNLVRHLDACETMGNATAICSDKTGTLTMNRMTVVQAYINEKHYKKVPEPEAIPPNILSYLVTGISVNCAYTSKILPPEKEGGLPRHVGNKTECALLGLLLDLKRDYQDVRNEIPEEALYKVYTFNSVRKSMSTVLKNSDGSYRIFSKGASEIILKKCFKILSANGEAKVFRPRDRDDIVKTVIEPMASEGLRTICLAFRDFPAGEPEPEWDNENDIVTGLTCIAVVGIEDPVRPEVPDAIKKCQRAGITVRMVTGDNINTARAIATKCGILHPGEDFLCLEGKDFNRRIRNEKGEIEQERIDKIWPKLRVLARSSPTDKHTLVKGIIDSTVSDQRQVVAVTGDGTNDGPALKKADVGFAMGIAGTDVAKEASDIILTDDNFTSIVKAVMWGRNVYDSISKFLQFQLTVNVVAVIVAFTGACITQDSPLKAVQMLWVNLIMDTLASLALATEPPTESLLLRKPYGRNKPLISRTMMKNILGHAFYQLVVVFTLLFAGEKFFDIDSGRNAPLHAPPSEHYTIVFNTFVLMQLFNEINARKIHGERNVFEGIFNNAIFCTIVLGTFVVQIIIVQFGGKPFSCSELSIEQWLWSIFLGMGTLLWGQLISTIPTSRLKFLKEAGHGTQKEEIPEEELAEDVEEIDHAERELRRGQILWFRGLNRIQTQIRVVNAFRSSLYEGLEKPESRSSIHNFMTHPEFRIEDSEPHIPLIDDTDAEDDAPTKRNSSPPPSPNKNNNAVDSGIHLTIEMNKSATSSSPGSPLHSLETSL
UniProt P38606, whole entry, looked up: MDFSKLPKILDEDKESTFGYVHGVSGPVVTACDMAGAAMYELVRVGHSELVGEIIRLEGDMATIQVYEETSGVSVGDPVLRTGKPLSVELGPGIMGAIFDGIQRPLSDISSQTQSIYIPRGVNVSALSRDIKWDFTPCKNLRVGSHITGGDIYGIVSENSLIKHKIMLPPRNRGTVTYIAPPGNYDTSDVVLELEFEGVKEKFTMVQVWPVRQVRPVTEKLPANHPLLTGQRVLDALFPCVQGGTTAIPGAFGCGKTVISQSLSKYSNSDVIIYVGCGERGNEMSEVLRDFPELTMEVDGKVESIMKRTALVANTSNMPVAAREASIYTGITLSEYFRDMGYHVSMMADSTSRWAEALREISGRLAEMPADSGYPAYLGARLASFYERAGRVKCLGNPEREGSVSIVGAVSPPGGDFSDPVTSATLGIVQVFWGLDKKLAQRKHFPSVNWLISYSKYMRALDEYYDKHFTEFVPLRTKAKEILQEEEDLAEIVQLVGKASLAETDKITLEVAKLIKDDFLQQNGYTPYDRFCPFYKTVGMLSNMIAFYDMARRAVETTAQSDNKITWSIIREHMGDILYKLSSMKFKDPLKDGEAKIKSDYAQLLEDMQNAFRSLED
UniProt Q13315: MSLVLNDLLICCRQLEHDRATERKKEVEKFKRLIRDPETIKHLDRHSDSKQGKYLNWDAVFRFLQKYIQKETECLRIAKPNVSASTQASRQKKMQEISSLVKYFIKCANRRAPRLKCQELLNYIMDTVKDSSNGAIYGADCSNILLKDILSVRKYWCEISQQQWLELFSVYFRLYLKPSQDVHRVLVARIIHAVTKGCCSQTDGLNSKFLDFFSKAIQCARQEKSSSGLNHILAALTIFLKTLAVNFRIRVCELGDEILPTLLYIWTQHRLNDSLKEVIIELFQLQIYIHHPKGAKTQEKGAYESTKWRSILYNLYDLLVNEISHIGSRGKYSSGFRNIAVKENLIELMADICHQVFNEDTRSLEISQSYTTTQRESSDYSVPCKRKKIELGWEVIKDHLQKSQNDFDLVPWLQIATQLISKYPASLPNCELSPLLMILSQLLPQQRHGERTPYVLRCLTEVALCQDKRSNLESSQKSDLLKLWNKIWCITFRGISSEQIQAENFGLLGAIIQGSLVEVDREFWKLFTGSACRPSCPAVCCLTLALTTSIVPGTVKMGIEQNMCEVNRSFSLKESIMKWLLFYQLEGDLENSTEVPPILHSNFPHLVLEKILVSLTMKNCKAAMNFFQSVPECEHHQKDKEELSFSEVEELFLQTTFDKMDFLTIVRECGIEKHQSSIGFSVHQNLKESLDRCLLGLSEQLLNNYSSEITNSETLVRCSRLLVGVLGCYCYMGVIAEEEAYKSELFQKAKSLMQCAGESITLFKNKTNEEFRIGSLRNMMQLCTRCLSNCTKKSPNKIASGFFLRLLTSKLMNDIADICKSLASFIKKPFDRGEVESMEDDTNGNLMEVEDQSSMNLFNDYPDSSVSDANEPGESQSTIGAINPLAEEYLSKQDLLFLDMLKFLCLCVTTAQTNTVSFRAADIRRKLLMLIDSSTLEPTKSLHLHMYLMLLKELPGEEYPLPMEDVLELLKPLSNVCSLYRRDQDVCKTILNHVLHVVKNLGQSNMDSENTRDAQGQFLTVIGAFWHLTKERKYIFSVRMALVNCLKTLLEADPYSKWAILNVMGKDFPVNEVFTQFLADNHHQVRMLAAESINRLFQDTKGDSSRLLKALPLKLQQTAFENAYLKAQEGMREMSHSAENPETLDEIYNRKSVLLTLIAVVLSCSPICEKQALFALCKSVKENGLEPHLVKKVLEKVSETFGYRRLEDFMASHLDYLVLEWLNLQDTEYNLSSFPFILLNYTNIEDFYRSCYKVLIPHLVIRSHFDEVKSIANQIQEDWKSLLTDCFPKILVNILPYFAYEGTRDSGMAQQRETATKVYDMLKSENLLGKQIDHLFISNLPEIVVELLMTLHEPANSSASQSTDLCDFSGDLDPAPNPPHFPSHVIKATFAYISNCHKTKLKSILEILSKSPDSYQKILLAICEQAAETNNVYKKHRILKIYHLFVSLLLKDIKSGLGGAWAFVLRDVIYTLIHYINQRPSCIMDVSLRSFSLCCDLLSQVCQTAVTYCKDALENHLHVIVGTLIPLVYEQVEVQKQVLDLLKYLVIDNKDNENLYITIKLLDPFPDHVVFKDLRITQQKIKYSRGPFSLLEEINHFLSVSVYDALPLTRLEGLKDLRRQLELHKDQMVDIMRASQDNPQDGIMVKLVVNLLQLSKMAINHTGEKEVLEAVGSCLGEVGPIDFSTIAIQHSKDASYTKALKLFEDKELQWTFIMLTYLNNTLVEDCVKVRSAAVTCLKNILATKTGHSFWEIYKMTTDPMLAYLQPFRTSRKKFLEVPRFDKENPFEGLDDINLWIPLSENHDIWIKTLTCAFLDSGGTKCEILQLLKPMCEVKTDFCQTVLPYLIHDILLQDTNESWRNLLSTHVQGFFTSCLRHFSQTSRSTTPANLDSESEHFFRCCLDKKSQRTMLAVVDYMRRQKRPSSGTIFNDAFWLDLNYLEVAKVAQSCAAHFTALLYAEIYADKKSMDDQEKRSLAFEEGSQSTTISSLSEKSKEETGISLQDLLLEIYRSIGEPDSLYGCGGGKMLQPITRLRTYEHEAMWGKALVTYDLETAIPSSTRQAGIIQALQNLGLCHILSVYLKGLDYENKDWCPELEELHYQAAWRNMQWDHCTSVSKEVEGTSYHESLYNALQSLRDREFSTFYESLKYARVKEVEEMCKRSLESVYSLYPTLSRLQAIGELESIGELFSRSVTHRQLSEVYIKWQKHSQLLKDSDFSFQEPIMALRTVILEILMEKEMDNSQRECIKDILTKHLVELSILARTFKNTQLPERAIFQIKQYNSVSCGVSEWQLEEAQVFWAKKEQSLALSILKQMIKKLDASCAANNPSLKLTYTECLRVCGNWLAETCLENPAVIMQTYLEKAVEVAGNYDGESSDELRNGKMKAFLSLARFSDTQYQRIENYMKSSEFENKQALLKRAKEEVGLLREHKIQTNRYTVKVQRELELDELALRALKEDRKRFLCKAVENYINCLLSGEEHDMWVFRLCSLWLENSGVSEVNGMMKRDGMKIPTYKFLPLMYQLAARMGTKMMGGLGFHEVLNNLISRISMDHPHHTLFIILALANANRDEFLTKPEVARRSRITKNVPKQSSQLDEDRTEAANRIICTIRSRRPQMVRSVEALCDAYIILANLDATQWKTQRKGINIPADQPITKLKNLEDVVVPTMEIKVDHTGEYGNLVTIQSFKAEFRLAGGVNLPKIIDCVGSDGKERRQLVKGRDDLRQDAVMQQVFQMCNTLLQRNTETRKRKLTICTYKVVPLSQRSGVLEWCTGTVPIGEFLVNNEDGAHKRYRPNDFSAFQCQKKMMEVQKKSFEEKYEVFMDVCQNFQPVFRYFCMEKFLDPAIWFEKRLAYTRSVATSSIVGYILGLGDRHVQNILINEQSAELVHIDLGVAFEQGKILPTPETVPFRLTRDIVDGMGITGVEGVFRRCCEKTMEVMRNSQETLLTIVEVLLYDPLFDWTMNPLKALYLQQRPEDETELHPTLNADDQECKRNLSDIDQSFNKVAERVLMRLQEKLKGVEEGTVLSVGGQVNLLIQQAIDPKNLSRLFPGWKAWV
UniProt Q9HD20: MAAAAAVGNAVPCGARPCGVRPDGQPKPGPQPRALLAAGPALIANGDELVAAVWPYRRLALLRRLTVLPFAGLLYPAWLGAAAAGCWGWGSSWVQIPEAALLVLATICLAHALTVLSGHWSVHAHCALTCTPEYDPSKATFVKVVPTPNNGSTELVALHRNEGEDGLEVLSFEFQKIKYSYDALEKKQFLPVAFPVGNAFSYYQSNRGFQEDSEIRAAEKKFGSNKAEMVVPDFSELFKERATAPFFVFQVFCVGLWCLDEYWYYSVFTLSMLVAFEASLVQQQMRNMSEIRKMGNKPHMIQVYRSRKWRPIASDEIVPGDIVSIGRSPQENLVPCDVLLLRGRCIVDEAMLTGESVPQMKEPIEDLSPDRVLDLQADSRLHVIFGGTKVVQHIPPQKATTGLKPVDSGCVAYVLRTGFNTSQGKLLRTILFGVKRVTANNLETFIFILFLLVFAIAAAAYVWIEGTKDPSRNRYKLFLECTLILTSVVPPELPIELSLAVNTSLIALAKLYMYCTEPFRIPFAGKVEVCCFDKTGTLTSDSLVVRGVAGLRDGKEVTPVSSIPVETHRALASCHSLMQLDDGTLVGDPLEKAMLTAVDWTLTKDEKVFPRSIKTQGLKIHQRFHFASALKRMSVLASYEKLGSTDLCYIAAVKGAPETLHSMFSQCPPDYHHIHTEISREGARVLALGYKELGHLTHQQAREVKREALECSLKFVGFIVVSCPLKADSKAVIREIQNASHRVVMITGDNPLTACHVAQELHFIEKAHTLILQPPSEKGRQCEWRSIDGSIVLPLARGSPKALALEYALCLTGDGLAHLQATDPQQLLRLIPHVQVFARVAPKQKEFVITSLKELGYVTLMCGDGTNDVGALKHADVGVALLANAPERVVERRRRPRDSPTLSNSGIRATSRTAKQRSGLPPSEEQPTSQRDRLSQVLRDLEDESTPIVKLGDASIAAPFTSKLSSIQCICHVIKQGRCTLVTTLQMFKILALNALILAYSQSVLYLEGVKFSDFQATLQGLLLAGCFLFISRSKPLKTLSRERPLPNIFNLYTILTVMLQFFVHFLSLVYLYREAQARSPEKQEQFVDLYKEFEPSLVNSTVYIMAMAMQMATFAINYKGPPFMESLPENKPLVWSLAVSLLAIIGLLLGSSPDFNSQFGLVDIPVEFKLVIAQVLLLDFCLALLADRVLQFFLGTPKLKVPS
UniProt Q96DT6: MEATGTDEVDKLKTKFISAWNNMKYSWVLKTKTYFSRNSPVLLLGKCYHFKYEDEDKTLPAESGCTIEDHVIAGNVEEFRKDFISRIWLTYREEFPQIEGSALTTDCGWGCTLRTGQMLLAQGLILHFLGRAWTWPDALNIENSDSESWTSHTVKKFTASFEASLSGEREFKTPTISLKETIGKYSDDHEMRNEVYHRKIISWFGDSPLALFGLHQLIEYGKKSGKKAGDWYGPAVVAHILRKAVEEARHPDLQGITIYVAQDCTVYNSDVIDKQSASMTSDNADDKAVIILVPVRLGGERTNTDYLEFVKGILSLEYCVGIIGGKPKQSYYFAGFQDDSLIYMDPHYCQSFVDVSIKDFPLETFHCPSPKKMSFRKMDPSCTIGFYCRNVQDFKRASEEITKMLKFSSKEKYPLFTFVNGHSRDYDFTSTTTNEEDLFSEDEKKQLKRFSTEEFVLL

Compound: Cc1cc(ccc1-c1ccccc1)C(=O)N1CCCN(CC1)C(=O)CCl [compound 10]
Assay: probe-labelled cysteine peptide fold change vs DMSO (competition) (log2 fold change); higher = less target engagement (more negative = stronger competition)
Conditions: THP-1, incubation time: 4 h
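Also: competitive profiling in live THP-1 cells: cysteine peptides tagged with an iodoacetamide desthiobiotin (IA-DTB) probe, intensity after compound treatment relative to DMSO-treated cells.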

Row | Target | probe-labelled cysteine peptide fold change (10 µM) | probe-labelled cysteine peptide fold change (50 µM)
1 | ATG2A_Q2TAZ0_811_CSLEVILPSVHIFLPSK (UniProt Q2TAZ0) | 0.0238 | -0.0458
2 | ARSA_P15289_493_GEDPALQICCHPGCTPR (UniProt P15289) | 0.183 | 0.265
3 | ATP2A2_P16615_635_GTAVAICR (UniProt P16615) | 0.0523 | 0.175
4 | ATRX_P46100-6_537_GGADCQEVPQDK (UniProt P46100) | -0.2 | -0.283
5 | ASNS_P08243_43+44_FENVNGYTNCCFGFHR (UniProt P08243) | 0.0396 | -0.187
6 | ATP2B1_P20020_473_HLDACETMGNATAICSDK (UniProt P20020) | -0.157 | -0.163
7 | ATIC_P31939_363_KNGNYCVLQMDQSYKPDENEVR (UniProt P31939) | -0.0223 | 0.032
8 | ATP6V1G1_O75348_104_DEVLDNLLAFVCDIRPEIHENYR (UniProt O75348) | 0.269 | 0.435
9 | ATP6V1A_P38606_240_VLDALFPCVQGGTTAIPGAFGCGK (UniProt P38606) | 0.0882 | -0.0453
10 | ATM_Q13315_2753_KLTICTYK (UniProt Q13315) | -0.14 | -0.192
11 | ASCC3_Q8N3C0_1535_QMGLFNFRPSVRPVPLEVHIQGFPGQHYCPR (UniProt Q8N3C0) | -0.137 | 0.0936
12 | ARSB_P15848_121_TGLQHQIIWPCQPSCVPLDEK (UniProt P15848) | 0.151 | 0.201
13 | ATM_Q13315_2770_SGVLEWCTGTVPIGEFLVNNEDGAHKR (UniProt Q13315) | 0.0886 | -0.152
14 | ATP13A1_Q9HD20_971_LSSIQCICHVIK (UniProt Q9HD20) | -0.129 | -0.0512
15 | ATP2C1_P98194_348_KLPIVETLGCCNVICSDK (UniProt P98194) | 0.0347 | 0.0758
16 | ATP2B1_P20020_463_HLDACETMGNATAICSDK (UniProt P20020) | 0.0417 | 0.0416
17 | ATP6V0D1_P61421_209_FCTLLGGTTADAMCPILEFEADRR (UniProt P61421) | 0.659 | 0.357
18 | ATAD2B_Q9ULI0_816_TPEESCAQIFR (UniProt Q9ULI0) | -0.154 | 0.0836

Row | Target | probe-labelled cysteine peptide fold change (10 µM) | probe-labelled cysteine peptide fold change (50 µM)
19 | ARRB2_P32121_141_ACGVDFEIR (UniProt P32121) | -0.176 | -0.298
20 | ARSB_P15848_405_IELLHNIDPNFVDSSPCPR (UniProt P15848) | -0.0177 | -0.482
21 | ATP6V1A_P38606_277_YSNSDVIIYVGCGER (UniProt P38606) | 0.00767 | 0.0679
22 | ASPSCR1_Q9BZE9_138_ECLQHPGGATPVCVYTR (UniProt Q9BZE9) | 0.0452 | 0.0342
23 | ATL2_Q8NHH9_441_MGGDEFCR (UniProt Q8NHH9) | 0.177 | 0.222
24 | ATG4C_Q96DT6_65_TLPAESGCTIEDHVIAGNVEEFRK (UniProt Q96DT6) | -0.065 | -0.309
25 | ATP13A1_Q9HD20_969+971_LSSIQCICHVIK (UniProt Q9HD20) | 0.206 | -0.0931
26 | ATIC_P31939_287_VCMVYDLYK (UniProt P31939) | 0.0118 | -0.00423
27 | ASPSCR1_Q9BZE9_40_VTPSTVLLQVLEDTCR (UniProt Q9BZE9) | 0.112 | 0.134
28 | ASNA1_O43681_289_IDTHNIIVNQLVFPDPEKPCK (UniProt O43681) | 0.23 | -0.0111
29 | ATL3_Q6DD88_256_NHIHSCFSDVTCFLLPHPGLQVATSPDFDGK (UniProt Q6DD88) | 0.126 | 0.112
30 | ATP1B1_P05026_213_YNPNVLPVQCTGK (UniProt P05026) | -0.334 | 0.0834
31 | ATP2A2_P16615_377_MFILDRVEGDTCSLNEFTITGSTYAPIGEVHK (UniProt P16615) | 0.0891 | 0.248
32 | ATP6V1A_P38606_254_VLDALFPCVQGGTTAIPGAFGCGK (UniProt P38606) | 0.228 | -0.0429
33 | ATIC_P31939_434_YTQSNSVCYAK (UniProt P31939) | 0.0833 | 0.05
34 | ATAD2_Q6PL18_1270_IACNGDASSSQIIHISDENEGK (UniProt Q6PL18) | -0.186 | -0.0745
35 | ATP2A1_O14983_349_SLPSVETLGCTSVICSDK (UniProt O14983) | -0.0681 | -0.0742
36 | ASCC3_Q8N3C0_1874_CLPIESNPHSFDSPHTK (UniProt Q8N3C0) | -0.155 | -0.0768
